PubChem BioAssay AID504764 | Drosophila RNAi Screening Center, 2011
The deposit covers about 22,000 reagents; shown is a random part of those with a known target gene and a result. Of all reagents, 403 (1.9%) were called active. 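Unnormalised raw counts per well; ratio z-scores behind the hit calls and whether each hit raises or lowers signal are not deposited.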 A number with no mark means an inactive call. The numbers tell different reagents against one gene apart. Not stated in the record: the amount of reagent.

- Assay: 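Genes whose knock-down alters Notch-dependent transcription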 (primary screen)
- Cell system: Drosophila Kc167 cells
- Reagents: long dsRNA against Drosophila genes
- Duration: about 5 days (4 days dsRNA, then 24 h after transfection)
- Treatment: transfection of constitutively active membrane-tethered Notch lacking the extracellular domain, read 24 h later
- Measurement: 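Light from a Notch-responsive E(spl)m3 luciferase reporter under active Notch, with control-promoter and no-Notch reporter wells to normalise; raw counts from paired wells a and b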
- Direction: induced reporter light, run 1, well a and induced reporter light, run 1, well b: higher = more light from the Notch target reporter with active Notch; control promoter light, run 1, well a and control promoter light, run 1, well b: higher = more light from the viral control promoter (cell number, transfection, viability); uninduced reporter light, run 1, well a: higher = more light from the Notch target reporter without active Notch
- Rule for the call: 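Wells with low control signal or poorly matching duplicates excluded; duplicates averaged; per source plate, z beyond ±2 for induced/control log2 ratio or beyond ±1.8 for induced/uninduced marks a hit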
- Meaning of the calls: active = modifier hit (raised or lowered Notch signal); inactive = not a hit

no.	target gene	reagent	induced reporter light, run 1, well a	induced reporter light, run 1, well b	control promoter light, run 1, well a	control promoter light, run 1, well b	uninduced reporter light, run 1, well a
1	CG6083	1	1.44e5	1.32e5	2.43e5	1.87e5	7445
2	Cyp28d1	1	1.87e5	1.73e5	1.79e5	1.58e5	15975
3	CG42703	1	81180	1.02e5	89995	1.02e5	8780
4	polyph	1	2.26e5	2.06e5	2.66e5	2.84e5	18435
5	Det	1	1.62e5	1.78e5	1.86e5	1.95e5	16720
6	loco	1	1.42e5	1.65e5	1.96e5	1.52e5	13250
7	loco	2	34595	40615	42835	39975	3142
8	CG8861	1	2.25e5	1.75e5	1.62e5	1.81e5	17135
9	CG8861	2	83205	72000	73605	52195	4820
10	CG17141	1	1.93e5	1.87e5	1.97e5	1.77e5	12588
11	Dic3	1	1.73e5	1.40e5	2.12e5	1.62e5	13165
12	Impbeta11	1	88525	89535	1.13e5	1.39e5	9575
13	CG5013	1	2.26e5	2.07e5	2.66e5	2.61e5	17855
14	Act79B	1	1.54e5	1.10e5	1.23e5	1.25e5	12010
15	CG13202	1	1.02e5	93685	1.23e5	1.15e5	9960
16	CG15864	1	62830	69390	47640	57130	3815

Single entries from above.
For “uninduced reporter light, run 1, well a”, Impbeta11 shows 9575
CG5013, control promoter light, run 1, well a → 2.66e5
Result of CG8861 #1 in “control promoter light, run 1, well b”: 1.81e5

The listing continues:
no.	target gene	reagent	induced reporter light, run 1, well a	induced reporter light, run 1, well b	control promoter light, run 1, well a	control promoter light, run 1, well b	uninduced reporter light, run 1, well a
17	Dlg5	1	94560	1.06e5	90020	1.06e5	10638
18	CG16964	1	1.10e5	1.43e5	1.40e5	1.50e5	11640
19	Acp53Ea	1	1.23e5	93520	1.36e5	1.61e5	10485
20	CG4269	1	1.90e5	2.00e5	1.86e5	1.62e5	15215
21	Nt5a	1	1.24e5	1.17e5	2.10e5	2.33e5	8630
22	se	1	1.93e5	1.75e5	2.31e5	1.37e5	9185
23	fs(1)M3	1	2.21e5	1.99e5	2.56e5	2.23e5	15440
24	Osi13	1	1.15e5	1.16e5	1.28e5	1.14e5	7835
25	CG3631	1	1.85e5	1.72e5	1.30e5	1.20e5	12738
26	CG14247	1	1.06e5	1.03e5	1.70e5	1.46e5	12220
27	Arl8	1	99400	1.01e5	93330	69735	7868
28	CG32027 (retired record)	1	1.99e5	1.96e5	2.29e5	2.63e5	17175
29	hoip	1	8382	9785	9050	6290	1105
30	Uev1A	1	1.60e5	1.84e5	1.19e5	70510	15515
31	GCS2beta	1	2.28e5	2.26e5	3.97e5	4.10e5	14805
32	sicily	1	1.18e5	99850	1.95e5	1.91e5	6950
33	CG14591	1	1.51e5 (active)	1.26e5	1.86e5	1.63e5	7920
34	Sap-r	1	1.68e5	1.89e5	2.45e5	2.24e5	13365
